These are yes or no findings as the source states them, for the method shown. Some results given as binding are weak or reduced against the parent protein; the word gives no strength.
What was measured:
[1] = target: T1, DSN1 (subunit of Mis12C in the KMN structure) (human) (UniProt Q9H410); assay: cryo-EM structure; eight-subunit KMN (full-length Mis12C, SPC24 109–197/SPC25 92–224, ZWINT, KNL1 2,021–2,342), 0.3 mg/ml with 0.003% Triton; reconstruction at 4.5 Å; model fitted from known structures and AF2 predictions and refined against the map; both purified
T1 sequence: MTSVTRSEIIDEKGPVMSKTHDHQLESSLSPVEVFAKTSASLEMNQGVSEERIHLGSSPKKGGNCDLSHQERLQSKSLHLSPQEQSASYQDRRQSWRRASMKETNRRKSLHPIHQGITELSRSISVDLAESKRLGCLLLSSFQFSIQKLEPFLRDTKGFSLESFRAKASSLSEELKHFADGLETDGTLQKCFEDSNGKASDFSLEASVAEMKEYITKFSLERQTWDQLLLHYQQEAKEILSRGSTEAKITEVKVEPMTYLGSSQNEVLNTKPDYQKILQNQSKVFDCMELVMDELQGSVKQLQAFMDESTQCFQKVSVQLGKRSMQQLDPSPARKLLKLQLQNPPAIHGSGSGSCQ

The chains behind the UniProt entries cited, without tags or fusion partners.
UniProt Q9H081: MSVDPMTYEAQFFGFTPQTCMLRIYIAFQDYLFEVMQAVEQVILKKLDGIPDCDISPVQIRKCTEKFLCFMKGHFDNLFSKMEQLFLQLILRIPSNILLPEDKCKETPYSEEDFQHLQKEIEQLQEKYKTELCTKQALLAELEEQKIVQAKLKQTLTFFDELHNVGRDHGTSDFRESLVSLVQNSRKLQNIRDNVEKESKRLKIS

[2] = target: MIS12 (subunit of Mis12C in the KMN structure) (human) (UniProt Q9H081); assay: as above

B1: PMF1 (subunit of Mis12C in the KMN structure) (protein, UniProt Q6P1K2 1-205)
chain: MAEASSANLGSGCEEKRHEGSSSESVPPGTTISRVKLLDTMVDTFLQKLVAAGSYQRFTDCYKCFYQLQPAMTQQIYDKFIAQLQTSIREEISDIKEEGNLEAVLNALDKIVEEGKVRKEPAWRPSGIPEKDLHSVMAPYFLQQRDTLRRHVQKQEAENQQLADAVLAGRRQVEELQLQVQAQQQAWQALHREQRELVAVLREPE
binding [1]: binds
binding [2]: binds
